Test results reported in publication PMC11092817.
These are yes or no findings as the source states them, for the method shown. Binding seen in cells or lysates may run through a third protein. Some binding calls cover weakened binding; strength is not graded here. For some of these results: Where a sequence is shown, tags or fusion partners need not be part of it.

Amino acid sequences for entries named in this document (tags omitted).
UniProt Q96E35: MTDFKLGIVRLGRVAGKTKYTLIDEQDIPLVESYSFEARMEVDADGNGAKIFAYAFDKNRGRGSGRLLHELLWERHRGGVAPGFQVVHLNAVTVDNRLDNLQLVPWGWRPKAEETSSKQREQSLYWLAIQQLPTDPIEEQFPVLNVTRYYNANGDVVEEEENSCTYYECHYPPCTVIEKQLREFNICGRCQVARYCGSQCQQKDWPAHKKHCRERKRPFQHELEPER
UniProt Q8N122: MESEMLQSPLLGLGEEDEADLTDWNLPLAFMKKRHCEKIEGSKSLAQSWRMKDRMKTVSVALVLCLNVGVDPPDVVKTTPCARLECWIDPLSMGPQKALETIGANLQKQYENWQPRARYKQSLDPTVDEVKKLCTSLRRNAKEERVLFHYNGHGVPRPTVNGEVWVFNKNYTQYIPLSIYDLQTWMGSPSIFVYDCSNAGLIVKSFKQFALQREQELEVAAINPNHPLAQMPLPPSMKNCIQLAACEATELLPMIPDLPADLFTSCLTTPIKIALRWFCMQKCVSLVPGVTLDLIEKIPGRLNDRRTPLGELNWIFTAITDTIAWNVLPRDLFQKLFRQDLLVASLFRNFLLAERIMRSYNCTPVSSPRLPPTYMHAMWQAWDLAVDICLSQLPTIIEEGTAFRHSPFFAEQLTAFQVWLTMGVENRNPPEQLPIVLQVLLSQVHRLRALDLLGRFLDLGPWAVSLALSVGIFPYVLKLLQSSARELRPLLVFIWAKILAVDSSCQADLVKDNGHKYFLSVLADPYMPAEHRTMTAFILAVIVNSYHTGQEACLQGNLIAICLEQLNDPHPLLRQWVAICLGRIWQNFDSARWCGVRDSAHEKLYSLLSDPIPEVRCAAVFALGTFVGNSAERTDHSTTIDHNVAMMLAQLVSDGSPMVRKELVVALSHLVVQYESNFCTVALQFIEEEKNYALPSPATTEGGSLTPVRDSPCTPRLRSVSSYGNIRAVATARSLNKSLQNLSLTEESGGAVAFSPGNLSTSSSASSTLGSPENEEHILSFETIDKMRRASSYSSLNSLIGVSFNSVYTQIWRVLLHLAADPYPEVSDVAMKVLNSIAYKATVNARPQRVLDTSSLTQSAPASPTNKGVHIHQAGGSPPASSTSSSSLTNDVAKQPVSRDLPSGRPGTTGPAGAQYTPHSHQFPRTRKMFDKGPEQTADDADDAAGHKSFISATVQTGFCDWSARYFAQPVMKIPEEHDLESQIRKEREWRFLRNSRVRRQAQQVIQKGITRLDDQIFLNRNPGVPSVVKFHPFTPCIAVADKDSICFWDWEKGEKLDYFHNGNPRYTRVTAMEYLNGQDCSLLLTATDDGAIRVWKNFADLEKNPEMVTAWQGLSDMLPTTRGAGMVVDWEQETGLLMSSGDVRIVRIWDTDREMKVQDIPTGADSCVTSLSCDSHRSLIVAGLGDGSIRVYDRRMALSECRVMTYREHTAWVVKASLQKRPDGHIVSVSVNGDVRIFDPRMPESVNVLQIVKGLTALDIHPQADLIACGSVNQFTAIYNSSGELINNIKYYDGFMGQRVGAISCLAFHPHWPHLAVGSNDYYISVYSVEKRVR

What was measured:
[1] = biological target: FLAG-tagged MKLN1 and ZMYND19, co-expressed (UniProt Q96E35); experiment: co-IP; anti-FLAG immunoprecipitation from 293T transiently co-expressing FLAG-tagged ZMYND19 and MKLN1, Myc-tagged Raptor and HA-tagged Rheb or HA-tagged RagA and RagC (wildtype or point mutants) (Fig. 6e)
FLAG-tagged ZMYND19 = FLAG-tagged ZMYND19 (UniProt Q96E35); experiment: co-IP; anti-FLAG M2 antibody on protein A/G magnetic beads; lysates of HEK-293T transiently transfected for 24 hours with one FLAG-tagged bait and Raptor-MYC (Fig. 6a)
FLAG-tagged TMEM192 = biological target: T1, FLAG-tagged TMEM192 (UniProt Q8IY95); experiment: as above
T1 sequence: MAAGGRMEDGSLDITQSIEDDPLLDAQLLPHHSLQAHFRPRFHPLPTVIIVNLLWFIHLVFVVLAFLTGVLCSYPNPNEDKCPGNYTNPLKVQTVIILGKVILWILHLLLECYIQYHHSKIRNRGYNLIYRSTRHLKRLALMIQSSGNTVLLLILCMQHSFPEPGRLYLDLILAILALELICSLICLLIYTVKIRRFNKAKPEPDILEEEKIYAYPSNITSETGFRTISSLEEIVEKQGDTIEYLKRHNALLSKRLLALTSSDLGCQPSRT

[2] = biological target: V5-tagged full length ZMYND19 (UniProt Q96E35); experiment: co-IP; anti-V5-tag magnetic beads, 3 h at 4°C, on lysates (IP lysis buffer) of YCCEL1 stably expressing V5-tagged cDNAs; immunoblot of 5% input vs immunoprecipitate

Substance: HA-tagged Rheb (from UniProt Q15382 1-184)
- binding [1]: no binding

Substance: Myc-tagged Raptor (from UniProt Q8N122 1-1335)
- binding (FLAG-tagged ZMYND19): binds
- binding (FLAG-tagged TMEM192): no binding

Substance: Raptor (from UniProt Q8N122 1-1335)
- binding [2]: binds
